The source of these data is publication doi:10.1101/2022.01.27.478073 (bioRxiv, 2022).

Assay [1] deals with T1, AtGPA1 (heterotrimeric G protein α subunit), bait from pDHB1-AtGPA1 (Arabidopsis) (UniProt P18064).
T1 sequence: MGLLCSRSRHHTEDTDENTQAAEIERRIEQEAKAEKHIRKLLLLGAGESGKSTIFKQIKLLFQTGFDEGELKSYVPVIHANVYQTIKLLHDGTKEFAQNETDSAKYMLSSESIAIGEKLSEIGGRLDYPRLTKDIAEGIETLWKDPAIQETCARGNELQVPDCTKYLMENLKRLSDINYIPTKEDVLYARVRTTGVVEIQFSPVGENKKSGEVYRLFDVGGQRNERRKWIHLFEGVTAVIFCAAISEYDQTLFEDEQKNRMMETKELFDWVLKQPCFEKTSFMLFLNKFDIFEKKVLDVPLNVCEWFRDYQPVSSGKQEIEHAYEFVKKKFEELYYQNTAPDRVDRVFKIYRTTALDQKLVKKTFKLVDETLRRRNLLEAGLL
The experiment in a line: two-hybrid.

Assay [2] deals with T1, AtGPA1 (heterotrimeric G protein α subunit), bait from pDHB1-AtGPA1 (Arabidopsis). The experiment in a line: two-hybrid. The source holds these as a separate data set.
Assay [3] deals with T2, nYFP-AtGPA1 (Arabidopsis) (UniProt P18064).
T2 sequence: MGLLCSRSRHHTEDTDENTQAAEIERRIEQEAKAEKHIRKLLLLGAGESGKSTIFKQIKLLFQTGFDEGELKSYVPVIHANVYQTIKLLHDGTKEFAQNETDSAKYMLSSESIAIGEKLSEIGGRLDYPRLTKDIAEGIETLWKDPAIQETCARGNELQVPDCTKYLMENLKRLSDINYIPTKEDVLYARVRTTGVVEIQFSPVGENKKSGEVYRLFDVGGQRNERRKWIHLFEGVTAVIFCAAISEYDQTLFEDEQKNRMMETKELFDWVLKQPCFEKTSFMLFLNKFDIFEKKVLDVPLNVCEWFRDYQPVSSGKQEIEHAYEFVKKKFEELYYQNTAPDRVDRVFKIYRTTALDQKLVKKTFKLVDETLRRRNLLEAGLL
The experiment in a line: split reporter.

Like-named read-outs stand apart in the source and are kept apart here. These are yes or no findings as the source states them, for the method shown. For part of these data: Binding seen in cells or lysates may run through a third protein. Some results given as binding are weak or reduced against the parent protein; the word gives no strength. For part of these data: Sequences can lack the tags named with a protein.

B1: AtNRT1.4 (nitrate transporter), prey from pPR3N-AtNRT1.4 (protein, UniProt Q9SZY4 1-577)
chain: MESKGSWTVADAVDYKGRPADKSKTGGWITAALILGIEVVERLSTMGIAVNLVTYLMETMHLPSSTSANIVTDFMGTSFLLCLLGGFLADSFLGRFKTIGIFSTIQALGTGALAVATKLPELRPPTCHHGEACIPATAFQMTILYVSLYLIALGTGGLKSSISGFGSDQFDDKDPKEKAHMAFFFNRFFFFISMGTLLAVTVLVYMQDEVGRSWAYGICTVSMAIAIVIFLCGTKRYRYKKSQGSPVVQIFQVIAAAFRKRKMELPQSIVYLYEDNPEGIRIEHTDQFHLLDKAAIVAEGDFEQTLDGVAIPNPWKLSSVTKVEEVKMMVRLLPIWATTIIFWTTYAQMITFSVEQASTMRRNIGSFKIPAGSLTVFFVAAILITLAVYDRAIMPFWKKWKGKPGFSSLQRIAIGLVLSTAGMAAAALVEQKRLSVAKSSSQKTLPISVFLLVPQFFLVGAGEAFIYTGQLDFFITQSPKGMKTMSTGLFLTTLSLGFFVSSFLVSIVKRVTSTSTDVGWLADNINHGRLDYFYWLLVILSGINFVVYIICALWFKPTKGKDSVEKENGKGFSVEDC
On to B1, for which the binding entry in assay [1] and in assay [2] was “binds” each time.

B2: cYFP-AtNRT1.4 (protein, UniProt Q9SZY4 1-577)
chain: MESKGSWTVADAVDYKGRPADKSKTGGWITAALILGIEVVERLSTMGIAVNLVTYLMETMHLPSSTSANIVTDFMGTSFLLCLLGGFLADSFLGRFKTIGIFSTIQALGTGALAVATKLPELRPPTCHHGEACIPATAFQMTILYVSLYLIALGTGGLKSSISGFGSDQFDDKDPKEKAHMAFFFNRFFFFISMGTLLAVTVLVYMQDEVGRSWAYGICTVSMAIAIVIFLCGTKRYRYKKSQGSPVVQIFQVIAAAFRKRKMELPQSIVYLYEDNPEGIRIEHTDQFHLLDKAAIVAEGDFEQTLDGVAIPNPWKLSSVTKVEEVKMMVRLLPIWATTIIFWTTYAQMITFSVEQASTMRRNIGSFKIPAGSLTVFFVAAILITLAVYDRAIMPFWKKWKGKPGFSSLQRIAIGLVLSTAGMAAAALVEQKRLSVAKSSSQKTLPISVFLLVPQFFLVGAGEAFIYTGQLDFFITQSPKGMKTMSTGLFLTTLSLGFFVSSFLVSIVKRVTSTSTDVGWLADNINHGRLDYFYWLLVILSGINFVVYIICALWFKPTKGKDSVEKENGKGFSVEDC
Regarding B2, the binding entry in assay [3] was “binds”.

B3: AtATG8a (autophagy-related protein), prey from pPR3N-AtATG8a (protein, UniProt Q8LEM4 1-117)
chain: MAKSSFKISNPLEARMSESSRIREKYPDRIPVIVEKAGQSDVPDIDKKKYLVPADLTVGQFVYVVRKRIKLGAEKAIFVFVKNTLPPTAALMSAIYEEHKDEDGFLYMTYSGENTFG
As to B3, the binding result in assay [1] and in assay [2] was “binds” throughout.

B4: cYFP-AtATG8a (protein, UniProt Q8LEM4 1-117)
chain: MAKSSFKISNPLEARMSESSRIREKYPDRIPVIVEKAGQSDVPDIDKKKYLVPADLTVGQFVYVVRKRIKLGAEKAIFVFVKNTLPPTAALMSAIYEEHKDEDGFLYMTYSGENTFG
Take B4: in assay [3], the binding result is reported as “binds”.
